In patent US20220403044A1 (ACADEMIA SINICA, published 2022):
No constants are given. Whether binding was seen depends on the method and setting. For part of these data: Binding seen in cells or lysates may run through a third protein. Some binding calls cover weakened binding; strength is not graded here. Tags and fused reporters may be left off the sequences shown.

How the values were obtained:
[1] = target: EGFR (endogenous, on HCT116 or H441 cells) (human) (UniProt P00533); test: DTSSP cross-linking on HCT116 cells, pull-down with Protein G beads, Western blot (FIG. 1A)
[2] = target: EGFRECD-6×His (purified extracellular domain of EGFR, His-tagged) (UniProt P00533); test: purified proteins incubated, IP with Protein G beads, Western blot (FIG. 1G)
[3] = target: EGFRECD-Flag (soluble extracellular domain of EGFR, Flag-tagged) (UniProt P00533); test: IP with Protein G beads from culture medium of co-transfected HEK293T cells, Western blot with anti-Flag (FIG. 1E)

Measured: binding

B1: EpEX-Fc (extracellular domain of EpCAM fused to Fc) (Fc fusion, UniProt P16422 24-262, looked up, not shown: a dimerising Fc or GST)
chain: QEECVCENYKLAVNCFVNNNRQCQCTSVGAQNTVICSKLAAKCLVMKAEMNGSKLGRRAKPEGALQNNDGLYDPDCDESGLFKAKQCNGTSMCWCVNTAGVRRTDKDTEITCSERVRTYWIIIELKHKAREKPYDSKSLRTALQKEITTRYQLDPKFITSILYENNVITIDLVQNSSQKTQNDVDIADVAYYFEKDVKGESLFHSKKMDLTVNGEQLDLDPGQTLIYYVDEKAPEFSMQ
binds: all assays above
